PubChem BioAssay AID504791 | Drosophila RNAi Screening Center – 2011
Test: 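Factors in Argonaute-based small RNA production and activity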 (primary screen). Cell system: Drosophila S2-derived reporter cells. Reagents: long dsRNA against Drosophila genes, about 150-250 ng dsRNA per well (siRNA assay); about 80-120 ng (miRNA assay). Duration: about 5 days (siRNA assay); about 4 days (miRNA assay). Treatment: copper sulfate induction of reporters: 25 µM (siRNA assay); 200 mM stated (miRNA assay), 1-2 days before reading. Read-out: 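Per-well ratio of Renilla over firefly light, expressed relative to that plate's average ratio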. Direction: siRNA reporter hit score: higher = 3 marks a strong hit with raised ratio; -3 a strong hit with lowered ratio. Hit rule: 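First-pass picks had plate-scaled ratios over 1.5 for the siRNA assay, over 1.6 for the miRNA assay, or under 0.6; two distinct dsRNAs had to score alike on retest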.
The screen tested about 23,000 reagents; this is a random part of those with a known target gene and a result. In the full data, 199 (0.86%) are marked active. 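Plate-scaled ratios behind the calls are not deposited; printed light signals are raw; many rows marked increased or decreased are still called inactive.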 The numbers tell different reagents against one gene apart. Names joined by + are all predicted targets of the reagent. No sequences are given here.

| gene | dsRNA no. | siRNA reporter hit score | stable siRNA reporter change | miRNA reporter change | stable assay Renilla, run 1 (luminescence) | stable assay firefly, run 1 (luminescence) | Outcome |
| --- | --- | --- | --- | --- | --- | --- | --- |
| EcR | 1 | – | – | – | 6419 | 4.37e5 | inactive |
| EcR | 2 | – | – | – | 8179 | 1.64e6 | inactive |
| CG11927 | 1 | – | – | – | 10321 | 3.98e5 | inactive |
| Atf6 | 1 | – | – | – | 4403 | 3.65e5 | inactive |
| Atf6 | 2 | – | – | – | 6087 | 3.77e5 | inactive |
| CG13870 | 1 | – | – | – | 6579 | 3.99e5 | inactive |
| loqs | 1 | – | – | – | 12735 | 5.17e5 | inactive |
| CG30105 | 1 | – | – | – | 8014 | 5.36e5 | inactive |
| TTLL3B | 1 | – | – | – | 7935 | 4.08e5 | inactive |
| dwg | 1 | – | – | – | 7787 | 4.67e5 | inactive |
| CG6664 | 1 | – | – | – | 7292 | 2.76e5 | inactive |
| Or71a | 1 | – | – | – | 7938 | 3.55e5 | inactive |
| CG32700 | 1 | – | – | – | 5410 | 3.90e5 | inactive |
| CG32700 | 2 | – | – | – | 5371 | 4.21e5 | inactive |
| CG7565 | 1 | – | – | – | 8203 | 5.13e5 | inactive |
| rpk | 1 | – | – | – | 9002 | 3.38e5 | inactive |
| rpk | 2 | – | – | – | 8847 | 4.68e5 | inactive |
| Cpr78Cc | 1 | – | – | – | 7588 | 4.92e5 | inactive |
| SdhAL | 1 | – | – | – | 7371 | 4.27e5 | inactive |
| CG34210 | 1 | – | – | – | 6128 | 3.72e5 | inactive |
| La | 1 | – | – | – | 8620 | 5.50e5 | inactive |
| lft | 1 | – | – | – | 6890 | 2.78e5 | inactive |
| CG9795 | 1 | – | – | – | 9285 | 3.24e5 | inactive |
| Cc2d2a | 1 | – | – | – | 6450 | 3.13e5 | inactive |
| Cc2d2a | 2 | – | – | – | 6163 | 2.88e5 | inactive |
| CG2747 | 1 | – | – | – | 7087 | 4.39e5 | inactive |
| CG6901 | 1 | – | – | – | 6950 | 3.92e5 | inactive |
| Mad1 | 1 | – | – | – | 7343 | 4.78e5 | inactive |

Targets listed so far whose target name begins with C or c:
| gene | dsRNA no. | siRNA reporter hit score | stable siRNA reporter change | miRNA reporter change | stable assay Renilla, run 1 (luminescence) | stable assay firefly, run 1 (luminescence) | Outcome |
| --- | --- | --- | --- | --- | --- | --- | --- |
| CG11927 | 1 | – | – | – | 10321 | 3.98e5 | inactive |
| CG13870 | 1 | – | – | – | 6579 | 3.99e5 | inactive |
| CG30105 | 1 | – | – | – | 8014 | 5.36e5 | inactive |
| CG6664 | 1 | – | – | – | 7292 | 2.76e5 | inactive |
| CG32700 | 1 | – | – | – | 5410 | 3.90e5 | inactive |
| CG32700 | 2 | – | – | – | 5371 | 4.21e5 | inactive |
| CG7565 | 1 | – | – | – | 8203 | 5.13e5 | inactive |
| Cpr78Cc | 1 | – | – | – | 7588 | 4.92e5 | inactive |
| CG34210 | 1 | – | – | – | 6128 | 3.72e5 | inactive |
| CG9795 | 1 | – | – | – | 9285 | 3.24e5 | inactive |
| Cc2d2a | 1 | – | – | – | 6450 | 3.13e5 | inactive |
| Cc2d2a | 2 | – | – | – | 6163 | 2.88e5 | inactive |
| CG2747 | 1 | – | – | – | 7087 | 4.39e5 | inactive |
| CG6901 | 1 | – | – | – | 6950 | 3.92e5 | inactive |

Additional entries:
| gene | dsRNA no. | siRNA reporter hit score | stable siRNA reporter change | miRNA reporter change | stable assay Renilla, run 1 (luminescence) | stable assay firefly, run 1 (luminescence) | Outcome |
| --- | --- | --- | --- | --- | --- | --- | --- |
| CG8939 | 1 | – | – | – | 7450 | 4.03e5 | inactive |
| Oseg2 | 1 | – | – | – | 6151 | 3.70e5 | inactive |
| CG18641 | 1 | – | – | – | 8660 | 4.64e5 | inactive |
| CG32453 | 1 | – | – | – | 7811 | 3.96e5 | inactive |
| CG14130 | 1 | – | – | – | 7417 | 4.13e5 | inactive |
| CG34315 + Orc3 | 1 | – | – | – | 8115 | 5.03e5 | inactive |
| dod | 1 | – | – | – | 4876 | 4.61e5 | inactive |
| CG11200 | 1 | – | – | – | 10187 | 3.23e5 | inactive |
| nAChRbeta3 | 1 | – | – | – | 10484 | 2.51e5 | inactive |
| sel | 1 | – | – | – | 5451 | 4.66e5 | inactive |
| Sf3b5 | 1 | – | – | reporter ratio lowered past the hit cutoff | 8784 | 8.25e5 | active |
| CG4891 | 1 | – | – | – | 2.92e5 | 1.34e6 | inactive |
| mof | 1 | – | – | – | 5727 | 2.63e5 | inactive |
| meso18E | 1 | – | – | – | 6828 | 6.19e5 | inactive |
| nrv3 | 1 | – | – | – | 2515 | 3.16e5 | inactive |
| CG11560 | 1 | – | – | – | 6631 | 3.33e5 | inactive |
| CG15767 | 1 | – | – | – | 5279 | 2.49e5 | inactive |
| Spt6 | 1 | – | – | – | 3615 | 2.66e5 | inactive |
| CG5961 | 1 | – | – | – | 7510 | 4.09e5 | inactive |
| ND-75 | 1 | – | – | – | 6175 | 3.55e5 | inactive |
| CG13044 | 1 | – | – | – | 7451 | 4.28e5 | inactive |
| CG13069 | 1 | – | – | – | 6776 | 4.08e5 | inactive |
| mip130 | 1 | – | – | – | 5455 | 3.83e5 | inactive |
| CG33218 (retired record) | 1 | – | – | – | 4655 | 4.23e5 | inactive |
| CG32582 (retired record) | 1 | – | – | – | 5179 | 3.78e5 | inactive |
| CG17107 | 1 | – | – | – | 4727 | 4.65e5 | inactive |
| CG17107 | 2 | – | – | – | 3395 | 3.50e5 | inactive |
| CG13887 | 1 | – | – | – | 10385 | 4.75e5 | inactive |
| CG13071 | 1 | – | – | – | 7531 | 4.03e5 | inactive |
| Pa1 | 1 | – | – | – | 4576 | 4.18e5 | inactive |
| CG15579 | 1 | – | – | – | 6716 | 4.42e5 | inactive |
| Pxt | 1 | – | – | – | 5311 | 4.14e5 | inactive |
| CG31051 | 1 | – | reporter ratio lowered past the hit cutoff | – | 5276 | 5.52e5 | inactive |
| Nckx30C | 1 | – | – | – | 7451 | 3.89e5 | inactive |
| Nckx30C | 2 | – | – | – | 7287 | 4.04e5 | inactive |
| Nckx30C | 3 | – | – | – | 7871 | 4.67e5 | inactive |
| Nckx30C | 4 | – | – | – | 7977 | 4.04e5 | inactive |
| mRpL30 | 1 | – | – | – | 5132 | 3.02e5 | inactive |
| g | 1 | – | – | – | 6946 | 5.70e5 | inactive |
| CG43333 | 1 | – | – | – | 6766 | 3.87e5 | inactive |
| CG43333 | 2 | – | – | – | 6798 | 5.36e5 | inactive |
| CG15628 | 1 | 3 | – | – | 4200 | 2.18e5 | inactive |
| CG15628 | 2 | – | – | – | 8303 | 4.69e5 | inactive |
| Peritrophin-A | 1 | – | – | – | 7106 | 4.36e5 | inactive |
| CG6337 | 1 | – | – | – | 5791 | 3.35e5 | inactive |
| CG6337 | 2 | – | – | – | 9547 | 6.78e5 | inactive |
| CG13110 | 1 | – | – | – | 5219 | 4.40e5 | inactive |
| CG13282 | 1 | – | – | – | 8038 | 3.91e5 | inactive |
| tsg | 1 | – | – | – | 5399 | 4.00e5 | inactive |
| CG14411 | 1 | – | – | – | 5372 | 4.71e5 | inactive |
| hook | 1 | – | – | – | 7315 | 1.37e6 | inactive |
| Septin4 | 1 | – | – | – | 7656 | 5.35e5 | inactive |
| Mst89B | 1 | – | – | – | 7755 | 5.18e5 | inactive |
| unk | 1 | – | – | – | 6975 | 3.46e5 | inactive |
| CG1307 | 1 | – | – | – | 7655 | 4.04e5 | inactive |
